From ChEMBL document CHEMBL3988442, “University of Dundee, Small-Polar-MMV Screening Library” (2021).

By UniProt entry, the sequences of proteins in these tests, tags left out.
UniProt E9BF75, entry or part of it: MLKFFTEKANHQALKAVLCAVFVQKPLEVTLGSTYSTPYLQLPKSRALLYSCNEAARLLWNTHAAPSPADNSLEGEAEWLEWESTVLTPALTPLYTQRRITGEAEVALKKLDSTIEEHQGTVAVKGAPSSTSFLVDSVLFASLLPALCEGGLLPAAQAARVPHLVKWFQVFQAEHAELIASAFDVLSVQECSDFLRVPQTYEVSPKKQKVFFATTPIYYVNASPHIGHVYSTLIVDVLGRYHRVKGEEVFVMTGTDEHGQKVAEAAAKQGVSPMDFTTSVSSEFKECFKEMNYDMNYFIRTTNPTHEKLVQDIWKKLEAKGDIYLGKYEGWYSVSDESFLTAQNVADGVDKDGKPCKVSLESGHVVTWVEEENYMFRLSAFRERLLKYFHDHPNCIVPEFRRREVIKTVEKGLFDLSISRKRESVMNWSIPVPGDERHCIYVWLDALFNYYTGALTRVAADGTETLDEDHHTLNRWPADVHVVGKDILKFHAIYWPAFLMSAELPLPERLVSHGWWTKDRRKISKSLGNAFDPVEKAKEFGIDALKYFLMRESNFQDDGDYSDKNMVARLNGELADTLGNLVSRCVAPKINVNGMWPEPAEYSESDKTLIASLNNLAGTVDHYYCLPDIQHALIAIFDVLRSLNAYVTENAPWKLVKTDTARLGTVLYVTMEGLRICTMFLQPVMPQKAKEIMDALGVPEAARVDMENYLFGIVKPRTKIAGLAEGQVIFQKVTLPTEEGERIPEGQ

Results are percentages, as filed.
How 0% and 100% were set is not recorded. Most values in the screen are low, and negative values occur.
The compounds are a random part of those screened.

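Methionyl-tRNA synthetase (putative), Leishmania donovani (UniProt E9BF75). Primary screen of methionyl-tRNA synthetase; the read-out is not stated. The test concentration is not given. The values are filed as inhibition. Size under these conditions: about 68,000 compounds, about 24 of them at 50% or above in at least one test.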

SMILES	inhibition
Cc1ccsc1C(CNC(=O)c1cc(=O)[nH]c(=O)[nH]1)N(C)C (centres unmarked)	6.504
CC(C)(C)CN1CCCC2(CCN(C(=O)c3ccc(O)nc3)C2)C1 (centres unmarked)	17.13
COCCC1COC2(CCN(C(=O)CC3CCCC3)CC2)C1 (centres unmarked)	14.6
Cc1cc(CN2CCN(C(=O)C(C(C)C)n3cncn3)CC2)no1 (centres unmarked)	11.17
COC(=O)c1ccc(N(C(=O)c2cc(Cl)ccn2)C(C)C)c(C)c1	6.425
O=C(NCCn1cccc1)C(c1cccnc1)N1CCCC1 (centres unmarked)	5.897
Cc1cnn(C2CCCN(C(=O)c3c(C)oc4nc[nH]c(=O)c34)C2)c1 (centres unmarked)	13.83
O=C(C1CNCCO1)N1CCCC(c2ccccc2)(c2ccccc2)C1 (centres unmarked)	8.247
Fc1ccc(-c2noc(CN3CCC(c4cc[nH]n4)CC3)n2)cc1	15.72
COc1ccc(CN(C)c2nc3c(cnn3C)c(=O)[nH]2)c(OC)c1	3.631
Cc1ccc(-c2cc(C(=O)NCC3CCOC3)n[nH]2)s1 (centres unmarked)	7.599
Cc1cccc(C2CCCN2Cc2nc(N)nc(N(C)C)n2)c1C (centres unmarked)	17.76
c1cnn(CC2CN(CCCOc3ccc4c(c3)OCO4)CCO2)c1 (centres unmarked)	6.361
COc1ccc(F)cc1CSCC(=O)N(C)CCC#N	9.946
CCN(Cc1ccccc1)C(=O)CN1CCOC(Cn2cncn2)C1 (centres unmarked)	5.915
CCSc1cc(C(=O)N(C(C)C)C2CC2)ccn1	8.207
N#Cc1cccnc1N1CCCC(CO)(Cc2ccccc2F)C1 (centres unmarked)	17.6
Cc1ncnc2c1CCN(C(=O)Cc1ccccn1)CC2	7.781
COc1cc(CNCc2c(C)nn(C)c2N(C)C)ccc1OCCO	17.48
CN(Cc1nnc2n1CCC2)C(=O)Cc1ccc2c(c1)CCC2	15.03
CN1CCN(S(C)(=O)=O)Cc2cccnc21	13.49
Cc1cccc(CCC(=O)NCC2CCCN2c2cccnn2)c1 (centres unmarked)	-0.4819
O=C(c1cccs1)N1CCC(O)(CN2CCc3ccccc3C2)C1 (centres unmarked)	18.15
O=C(Cc1ccc(F)cc1)NCCNc1cc(N2CCCC2)cnn1	11.65
CCn1c(CN2CCC(O)(c3ccc4c(c3)OCO4)CC2)cnc1SC	1.869
C/C=C(/C)C(=O)NS(=O)(=O)c1ccc(C(F)(F)F)cc1	3.495
Cc1nn(C)c(C)c1C(=O)NCc1cc(N(C)C)nc2ccccc12	3.133
CC(NC(=O)NC1CCN(CC2CCCC2)CC1)c1nccs1 (centres unmarked)	16.4
NC(=O)c1cccc(CC2CCN(C(=O)CCc3cccc(F)c3)C2)c1 (centres unmarked)	15.38
CC(c1cccs1)N(C)Cc1cnc(-c2ccccn2)nc1 (centres unmarked)	10.08
Cc1nccn1-c1ccc(CNS(=O)(=O)N2CCC(C)CC2)cn1	12.93
Cc1cc(C(=O)N2CCC(c3nccn3Cc3ccncc3)CC2)no1	13.3
CCC(C(=O)N(C)Cc1cc(C2CC2)[nH]n1)n1cccn1 (centres unmarked)	12.89
O=S(=O)(NC[C@]12COC[C@H]1CN(CCc1ccccc1)C2)C1CC1	8.029
N#Cc1c(SCCN2CCCCC2)sc2c(O)cc(O)nc12	5.676
CC(C)c1nc(CN2CCCC(O)C2)cs1 (centres unmarked)	6.529
Cc1n[nH]c(C2CN(C(=O)c3scnc3C)CCO2)n1 (centres unmarked)	12.97
Cc1c[nH]c(CN(C)C(=O)c2ccc(CSc3nnc[nH]3)o2)n1	1.005
CCN(Cc1cccc(F)c1)S(=O)(=O)N1CCOCC1	0.5222
Cc1noc(C)c1CCc1nc(C2CCOC2)no1 (centres unmarked)	8.669
CCc1csc(CNCC(=O)Nc2ccc(Cl)c(C)c2)n1	7.617
COc1ncc(C2(O)CCN(Cc3cccc(F)c3F)CC2)c(OC)n1	7.765
CCN(CC)Cc1cn2c(n1)CN(C(=O)c1cc(C)on1)CC2	13.8
O=C(c1cnc(-c2ncccn2)s1)N1CCCC1Cn1cccn1 (centres unmarked)	18.8
COc1ccccc1NC(=O)NCCCC(=O)Nc1cn[nH]c1	-3.693
COC(=O)CNC(=O)Cn1ccc2cccc(OC)c21	1.515
CC(c1ccccc1)N(C)C(=O)CN1CCN(c2cnccn2)CC1 (centres unmarked)	14.78
COc1cc(Cl)c(NCc2c(C)noc2C)cc1OC	5.943
CNS(=O)(=O)Cc1cccc(CNCc2ccsc2)c1	9.89
c1cc(C2CCN(c3ncnc4c3CCNCC4)CC2)ccn1	11.68
Cc1cnn(CC2CCCN2CC(=O)N(C)Cc2ccco2)c1 (centres unmarked)	15.22
CN(Cc1cccc(C(=O)Nc2ccnn2C)c1)CC1(C)COC1	7.258
CCc1nc(CN(C)C(=O)CSC)no1	22.22
Cc1ccc2c(n1)N(C)CCN(CCN1CCCC1)C2	14.19
Cc1noc(C)c1CN(Cc1cccs1)C1CCS(=O)(=O)C1 (centres unmarked)	4.19
COCC1CN(C(=O)Cc2ccccn2)Cc2c1cnn2CC1CC1 (centres unmarked)	18.68
CCc1nc(C)sc1CN1CC[C@@](O)(CCOC)[C@H](C)C1	6.306
Cc1ncc(CNC(C)(C)CO)c2cc(C(=O)c3ccc(Br)cc3)oc12	12.74
CN(Cc1cccc(OC(F)(F)F)c1)C(=O)c1cnsn1	7.042
Cc1[nH]ncc1CCCNC(=O)Nc1ccc(S(C)(=O)=O)nc1	-1.63
COCC1c2c(cnn2C)CCN1C(=O)c1cscn1 (centres unmarked)	17.66
CCCc1nc(C)c(C(=O)Nc2cccc(C)n2)s1	2.817
CCC[C@H]1CN(Cc2cc(C)no2)C[C@@H]1NC(=O)C1(COC)CCC1	13.83
CC(c1nc(C2CC2)no1)N1CCN(Cc2ccccc2)CC1 (centres unmarked)	9.922
Cn1ccc(CS(=O)(=O)Cc2cccc(F)c2)cc1=O	15.38
CCn1c(NCc2ccccc2)nc2c(C)nn(C)c2c1=O	24.37
CC(=O)Nc1ncc(S(=O)(=O)N2CCN(C3CCCCC3)CC2)s1	16.67
COCC1CC2(CCN(c3cc(OC)ncn3)CC2)CN1C(C)C (centres unmarked)	10.56
CC(C)C(=O)NC1CC2(CCN(CC(=O)N(C)C)CC2)c2ccccc21 (centres unmarked)	18.09
O=C(CCOc1ccccc1F)NC1CCCN(c2ccccn2)C1 (centres unmarked)	11.49
Cn1cnc2cc(C(=O)N3CCC(c4ccccc4C(=O)O)C3)cnc21 (centres unmarked)	12.06
COc1ncccc1CNCc1c(C)nn(C)c1N(C)C	5.698
CC(C)NC(=O)[C@@H](NC(=O)N1CCN(c2ccc(Cl)cc2)CC1)C(C)C	10.37

9 of the entries, repeated:

SMILES	inhibition
CN(Cc1nnc2n1CCC2)C(=O)Cc1ccc2c(c1)CCC2	15.03
CCc1csc(CNCC(=O)Nc2ccc(Cl)c(C)c2)n1	7.617
COCC1CC2(CCN(c3cc(OC)ncn3)CC2)CN1C(C)C (centres unmarked)	10.56
COC(=O)c1ccc(N(C(=O)c2cc(Cl)ccn2)C(C)C)c(C)c1	6.425
CC(C)c1nc(CN2CCCC(O)C2)cs1 (centres unmarked)	6.529
CCN(CC)Cc1cn2c(n1)CN(C(=O)c1cc(C)on1)CC2	13.8
CCN(Cc1ccccc1)C(=O)CN1CCOC(Cn2cncn2)C1 (centres unmarked)	5.915
COC(=O)CNC(=O)Cn1ccc2cccc(OC)c21	1.515
CCN(Cc1cccc(F)c1)S(=O)(=O)N1CCOCC1	0.5222